Paper PMC11066040, “Nuclear phosphoinositide signaling promotes YAP/TAZ-TEAD transcriptional activity in breast cancer” (The EMBO Journal, 2024)
These are yes or no findings as the source states them, for the method shown. In cells and extracts the contact can be indirect. Binding calls can cover weak binding; strength is not graded here.

By UniProt entry, the sequences of proteins in these tests, tags left out. Where a name states a change or a piece, a line headed by the entry shows the natural chain unless it says otherwise.
UniProt Q99755: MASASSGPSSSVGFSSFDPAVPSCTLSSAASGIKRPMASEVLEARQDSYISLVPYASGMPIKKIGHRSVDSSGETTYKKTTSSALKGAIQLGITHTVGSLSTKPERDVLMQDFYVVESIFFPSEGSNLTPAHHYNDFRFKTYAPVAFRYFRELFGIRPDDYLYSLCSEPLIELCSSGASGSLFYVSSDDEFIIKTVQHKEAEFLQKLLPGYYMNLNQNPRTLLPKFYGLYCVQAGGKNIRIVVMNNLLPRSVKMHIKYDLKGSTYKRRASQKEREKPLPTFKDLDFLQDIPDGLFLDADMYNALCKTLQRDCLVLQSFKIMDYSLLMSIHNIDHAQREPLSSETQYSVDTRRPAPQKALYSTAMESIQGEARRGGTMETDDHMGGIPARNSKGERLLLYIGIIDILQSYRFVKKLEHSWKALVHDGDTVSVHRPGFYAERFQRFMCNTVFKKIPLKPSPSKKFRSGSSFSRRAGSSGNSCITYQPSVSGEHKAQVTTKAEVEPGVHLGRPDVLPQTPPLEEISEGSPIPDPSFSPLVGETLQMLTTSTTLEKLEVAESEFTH
UniProt P46937: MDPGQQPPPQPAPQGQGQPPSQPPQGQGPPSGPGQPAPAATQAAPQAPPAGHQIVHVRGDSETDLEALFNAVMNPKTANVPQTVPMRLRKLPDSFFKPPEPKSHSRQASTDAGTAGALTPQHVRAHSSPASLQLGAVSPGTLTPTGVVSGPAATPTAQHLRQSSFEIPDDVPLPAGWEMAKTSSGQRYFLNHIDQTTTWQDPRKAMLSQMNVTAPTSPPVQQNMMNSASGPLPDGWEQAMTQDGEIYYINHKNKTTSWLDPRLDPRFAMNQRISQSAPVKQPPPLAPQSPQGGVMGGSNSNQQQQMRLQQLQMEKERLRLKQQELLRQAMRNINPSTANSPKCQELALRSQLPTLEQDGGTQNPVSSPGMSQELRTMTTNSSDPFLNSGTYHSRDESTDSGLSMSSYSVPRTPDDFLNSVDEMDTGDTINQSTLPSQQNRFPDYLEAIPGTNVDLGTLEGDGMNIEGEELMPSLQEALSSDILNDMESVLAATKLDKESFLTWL

Target: HA-tagged PIPKIα, wild type (UniProt Q99755)
Assay: co-IP; tagged proteins co-transfected in HEK293 cells for 48 h; lysis in 1% Brij58, 150 mM NaCl, 20 mM HEPES pH 7.4; precipitated by anti-HA, anti-Myc or anti-Flag antibody, partner detected by its tag; in one panel cells treated with 5 μM LPA for 2 h

Flag-tagged YAP, wild type (from UniProt P46937 1-504)
binding: binds
